These are yes or no findings as the source states them, for the method shown. Some entries that bind do so weakly or less than the wild type. Blank lines part the entries; values can stand above or below the binder they belong to.
Key:
[1] = biological target: human WSX receptor (hWSXR), antigen of the phage ELISA (human) (UniProt P48357); test: antigen-binding phage ELISA; clone #17 is one of the 18 clones
[2] = biological target: human WSX receptor (hWSXR), antigen of the phage ELISA (human) (UniProt P48357); test: antigen-binding phage ELISA; clone #3 is one of the 18 clones

The chains behind the UniProt entries cited, without tags or fusion partners. Where a name states a change or a piece, a line headed by the entry shows the natural chain unless it says otherwise.
UniProt P48357: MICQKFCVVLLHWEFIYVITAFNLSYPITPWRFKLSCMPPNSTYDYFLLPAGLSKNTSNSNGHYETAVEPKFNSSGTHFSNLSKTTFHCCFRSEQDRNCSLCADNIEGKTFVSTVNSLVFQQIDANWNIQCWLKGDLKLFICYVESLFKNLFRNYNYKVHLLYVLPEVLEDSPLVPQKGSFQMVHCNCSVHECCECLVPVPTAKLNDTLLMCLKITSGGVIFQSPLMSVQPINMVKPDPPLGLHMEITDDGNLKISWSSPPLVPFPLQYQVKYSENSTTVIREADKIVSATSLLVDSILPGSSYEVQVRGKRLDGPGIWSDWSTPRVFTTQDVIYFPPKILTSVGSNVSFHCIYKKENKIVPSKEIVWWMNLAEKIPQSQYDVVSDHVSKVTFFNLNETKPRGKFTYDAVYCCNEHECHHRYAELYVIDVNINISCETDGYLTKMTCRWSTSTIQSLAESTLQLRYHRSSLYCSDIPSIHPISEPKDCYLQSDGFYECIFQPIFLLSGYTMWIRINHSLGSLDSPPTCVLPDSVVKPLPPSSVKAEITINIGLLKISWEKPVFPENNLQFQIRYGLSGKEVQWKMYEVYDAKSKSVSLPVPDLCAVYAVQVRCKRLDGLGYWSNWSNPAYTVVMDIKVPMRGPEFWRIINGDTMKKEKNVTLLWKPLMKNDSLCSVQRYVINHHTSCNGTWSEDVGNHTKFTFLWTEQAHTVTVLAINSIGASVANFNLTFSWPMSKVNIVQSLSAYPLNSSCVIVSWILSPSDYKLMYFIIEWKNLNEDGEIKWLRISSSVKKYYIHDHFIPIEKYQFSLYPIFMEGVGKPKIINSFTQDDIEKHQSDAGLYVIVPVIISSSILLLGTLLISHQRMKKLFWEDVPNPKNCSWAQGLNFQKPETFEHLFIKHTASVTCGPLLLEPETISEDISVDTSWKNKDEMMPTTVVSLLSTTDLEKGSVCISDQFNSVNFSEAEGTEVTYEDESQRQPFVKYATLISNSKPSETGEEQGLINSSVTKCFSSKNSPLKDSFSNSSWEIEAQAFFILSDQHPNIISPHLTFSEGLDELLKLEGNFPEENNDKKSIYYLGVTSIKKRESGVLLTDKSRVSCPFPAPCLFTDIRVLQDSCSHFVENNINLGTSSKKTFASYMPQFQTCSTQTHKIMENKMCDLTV

- binding [1]: binds
B1: agonist antibody clone #17 scFv (scFv)
scFv: QVRLQQSGGGLVQPGRSLRLSCAASGFTFDDYAMHWVRQAPGKGLEWVSGMTWNSGSIGYADSVKGRFTISRDNAKNSLYLQMNSLRAEDTAVYYCAREPHNTDAFDIWGRGTLVTVSSGGGGPGGGGSGGGGSDVVMTQSPSFLSAFVGDTITITCRASQGIYNYLAWYQQKPGKAPKLLIYAASTLQSGVPSRFSGSGSGTEFTLTISSLQPEDFGTYYCQQLISYPLTFGGGTKVEIK

- binding [2]: binds
B2: agonist antibody clone #3 scFv (scFv)
scFv: EVQLVQSGAEVKKPGASVKVSCKASGYTFTGYYMYWVRQAPGQGLEWMGWINPNSGGTNYAQKFQGRVTMTRDTSIGTAYMELSRLSSDDTAVYYCARDRYYGSSAYHRGSYYMDVWGRGTLVTVSSGGGGTGGGGSGGGGSSELTQDPAVSVALGQTVRITCQGDSLRSYYASWYQQKPGQAPVLVIYGKNNRPSGIPDRFSGSSSGNTASLTITGAQAEDEADYYCNSRDSSGNHVVFGGGTKLTVL

Source: patent US20060280737A1
